Our source for the binding values is PMC6929984.

By UniProt entry, the sequences of proteins in these tests, tags left out.
UniProt P43694: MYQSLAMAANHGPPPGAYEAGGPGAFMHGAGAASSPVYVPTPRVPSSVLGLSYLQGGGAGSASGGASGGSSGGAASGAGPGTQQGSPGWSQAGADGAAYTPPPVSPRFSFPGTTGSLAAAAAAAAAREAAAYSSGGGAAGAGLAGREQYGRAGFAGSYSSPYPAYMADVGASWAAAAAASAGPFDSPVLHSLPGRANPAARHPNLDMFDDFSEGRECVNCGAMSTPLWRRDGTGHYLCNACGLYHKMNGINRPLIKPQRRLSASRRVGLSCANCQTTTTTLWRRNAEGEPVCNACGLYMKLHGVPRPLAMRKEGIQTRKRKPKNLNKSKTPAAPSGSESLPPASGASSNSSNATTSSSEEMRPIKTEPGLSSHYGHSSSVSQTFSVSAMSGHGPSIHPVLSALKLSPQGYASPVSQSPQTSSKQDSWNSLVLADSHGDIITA
UniProt P35222: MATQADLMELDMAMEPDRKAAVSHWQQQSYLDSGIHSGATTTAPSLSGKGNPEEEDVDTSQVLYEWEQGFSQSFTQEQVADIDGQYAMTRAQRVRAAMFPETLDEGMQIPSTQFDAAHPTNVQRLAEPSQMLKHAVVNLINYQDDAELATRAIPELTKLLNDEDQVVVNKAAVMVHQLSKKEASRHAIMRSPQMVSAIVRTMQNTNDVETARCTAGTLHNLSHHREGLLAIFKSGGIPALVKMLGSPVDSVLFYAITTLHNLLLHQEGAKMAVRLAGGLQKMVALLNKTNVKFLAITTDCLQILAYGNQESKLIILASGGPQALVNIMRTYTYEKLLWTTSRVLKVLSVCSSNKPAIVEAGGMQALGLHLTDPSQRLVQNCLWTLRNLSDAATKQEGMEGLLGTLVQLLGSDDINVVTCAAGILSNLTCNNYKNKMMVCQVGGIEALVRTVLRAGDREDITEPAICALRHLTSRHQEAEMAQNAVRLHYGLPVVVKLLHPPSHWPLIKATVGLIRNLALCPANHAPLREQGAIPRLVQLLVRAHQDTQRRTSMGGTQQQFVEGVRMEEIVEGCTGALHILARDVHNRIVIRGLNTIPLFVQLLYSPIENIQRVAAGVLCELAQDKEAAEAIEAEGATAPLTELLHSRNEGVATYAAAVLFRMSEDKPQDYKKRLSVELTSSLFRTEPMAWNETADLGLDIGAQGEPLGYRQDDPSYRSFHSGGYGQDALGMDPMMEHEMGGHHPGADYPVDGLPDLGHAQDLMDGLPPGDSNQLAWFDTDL

Results are given in words; binding and its absence hold for the method and conditions named. Binding seen in cells or lysates may run through a third protein. Here binding means that the protein was enriched with, or labelled near, the bait; the list need not be complete.

For this assay, the target named is GATA4, doxycycline-inducible expression in HepG2i cells (human) (UniProt P43694). The experiment in a line: affinity purification with mass spectrometry; immunoprecipitation with anti-GATA4 or control IgG from DOX treated HepG2i cells; SDS-PAGE, silver staining, LC-MS/MS.

Turning to “β-catenin, endogenous in HepG2 / HepG2i cells (from UniProt P35222 1-781)”, the binding result is reported as “binds”.
